Measured values reported in paper PMC3282068.
Results are given in words; binding and its absence hold for the method and conditions named. For some assays here: In cells and extracts the contact can be indirect. Some entries that bind do so weakly or less than the wild type.

Protein sequences, listed by entry. Tags and fused reporters are not part of them.
UniProt P07355: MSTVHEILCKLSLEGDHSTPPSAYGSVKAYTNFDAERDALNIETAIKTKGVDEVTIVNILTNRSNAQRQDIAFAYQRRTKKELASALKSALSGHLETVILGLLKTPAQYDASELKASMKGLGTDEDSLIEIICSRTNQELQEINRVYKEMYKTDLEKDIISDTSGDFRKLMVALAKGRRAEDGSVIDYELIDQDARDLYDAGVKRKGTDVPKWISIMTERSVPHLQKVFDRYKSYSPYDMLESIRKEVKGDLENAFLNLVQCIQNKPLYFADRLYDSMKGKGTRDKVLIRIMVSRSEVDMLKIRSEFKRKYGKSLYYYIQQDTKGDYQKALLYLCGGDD

What was measured:
[1] = target: human recombinant Annexin A2, oxidized by H2O2 (human) (UniProt P07355); experiment: SDS-PAGE under non-reducing conditions with western blotting; 2.5 μM ANXA2 treated with 100 μM H2O2 with 20 μM Trx, 15 minutes at 37°C; labeled with 20 μM BIAM; complex seen as a 48 KDa band; both purified
[2] = target: Annexin A2, endogenous in A549 cells (human (endogenous in A549)) (UniProt P07355); experiment: co-IP; A549 cells non-treated or treated with 1 mM H2O2 for 1 hour; Triton X-100 lysis buffer (50 mM Tris pH 7.4, 0.15% Triton X-100, 150 mM NaCl, 1.5 mM EGTA); immunoprecipitation with anti-Trx, anti-ANXA2, anti-JunD (control) or IgG, protein G-Sepharose; western blotting

B1: thioredoxin (protein, UniProt P10599 1-105)
chain: MVKQIESKTAFQEALDAAGDKLVVVDFSATWCGPCKMIKPFFHSLSEKYSNVIFLEVDVDDCQDVASECEVKCMPTFQFFKKGQKVGEFSGANKEKLEATINELV
[1]
  binding: binds

B2: thioredoxin, endogenous in A549 cells (protein, UniProt P10599 1-105)
chain: B1 chain
[2]
  binding: binds
